Reference: patent US6506734B1, “20(S) camptothecin glycoconjugates” (Bayer Aktiengesellschaft, priority 1997, dated 2003)
Structures can show the parent of a compound that is named as a salt. Some entries share one result that the patent states for a list of compounds.

Columns and labels:
[1] = Lactone stabilization at pH 9 (HPLC); type: physicochemical; details: 80% water / 20% acetonitrile, pH 9 with 2 equivalents NaOH, room temperature, 1 h
[2] = Hydrolytic stability in water (HPLC); type: physicochemical; details: dissolved in water, room temperature, 24 h

Compound	lactone ring opening [1]	camptothecin release (HPLC area percent) [2]
CC[C@@]1(OC(=O)C(CC(C)C)NC(=O)[C@H](CCCCN)NC(=S)Nc2ccc(OC3O[C@@H](C)[C@@H](O)[C@@H](OC)[C@@H]3O)cc2)C(=O)OCc2c1cc1n(c2=O)Cc2cc3ccccc3nc2-1 (stereo partly drawn) [Example 1, 20(S)-20-O-{N^α-[O-(3-O-Methyl-β-L-fucopyranosyl)-4-hydroxy-phenylamino-thiocarbonyl]-L-lysyl-L/D-leucyl}-camptothecin, hydrochloride]	less than 5%	less than 1%
CC[C@@]1(OC(=O)[C@@H](NC(=O)[C@H](CCCCN)NC(=S)Nc2ccc(OC3O[C@@H](C)[C@@H](O)[C@@H](OC)[C@@H]3O)cc2)C(C)C)C(=O)OCc2c1cc1n(c2=O)Cc2cc3ccccc3nc2-1 (stereo partly drawn) [Example 8, 20(S)-20-O-{N^α-[-(3-O-Methyl-β-L-fucopyranosyl)-4-hydroxy-phenylamino-thiocarbonyl]-L-lysyl-L-valyl}-camptothecin, hydrochloride]	less than 5%	less than 1%
